Values from PubChem BioAssay AID1671195 (Yale University, 2021).
The deposit covers about 22,000 reagents; below is a random part of them. About 1,510 of them (6.9%) count as active. 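Active includes knockdowns raising or lowering LDL uptake; positive z-scores mean more uptake, negative mean less.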

Screen: 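Genes whose knockdown alters LDL uptake in liver cancer cells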 (primary screen)
System: human Huh7 hepatoma cells
Reagent: siRNA pool against human genes, 18 nM
Timing: about 2 to 2.5 days of knockdown, then 8 h LDL uptake
Challenge: DiI-labelled LDL at 30 µg/ml for 8 h, in lipoprotein-deficient serum medium
Read-out: 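Fluorescent LDL signal imaged in cells, scaled to the plate median, robust z-score for each replicate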
Scale: robust z-score: higher = more LDL uptake after knockdown
Active means: 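Active when two or more replicates show a robust z-score above 2 or below -2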

no.	gene	PubChem SID	robust z-score, replicate 1	robust z-score, replicate 2	robust z-score, replicate 3	Outcome
1	OR2S2 (olfactory receptor family 2 subfamily S member 2)	SID442899740	-0.516	-0.644	-0.828	inactive
2	GPR148 (G protein-coupled receptor 148)	SID442904366	-1.43	-1.82	-1.55	inactive
3	CCL28 (C-C motif chemokine ligand 28)	SID442889550	0.385	1.36	-0.118	inactive
4	FCN3 (ficolin 3)	SID442900796	-0.62	-0.783	-1.02	inactive
5	NT5C3A (5'-nucleotidase, cytosolic IIIA)	SID442893556	0.678	1.37	-1.94	inactive
6	C1QA (complement C1q A chain)	SID442896164	-0.471	-0.0802	-0.181	inactive
7	ZNF780B (zinc finger protein 780B)	SID442893082	-0.122	-0.0296	0.423	inactive
8	CD207 (CD207 molecule)	SID442899455	-1.7	-0.0774	-0.086	inactive
9	XRCC5 (X-ray repair cross complementing 5)	SID442890495	0.569	0.569	0.0918	inactive
10	POLR3G (RNA polymerase III subunit G)	SID442886333	0.38	1.83	1.36	inactive
11	OR4A16 (olfactory receptor family 4 subfamily A member 16)	SID442904715	-1.68	-2.02	-1.76	inactive
12	LOC388174 (retired record)	SID442885119	1.6	1.6	1.81	inactive
13	TEX30 (testis expressed 30)	SID442903985	-1.51	-1.29	-1.56	inactive
14	TRIM58 (tripartite motif containing 58)	SID442884667	4.1	0.947	1.01	inactive
15	NDFIP2 (Nedd4 family interacting protein 2)	SID442892596	0.238	0.302	-0.0996	inactive
16	LOC440003 (retired record)	SID442884968	1.96	1.73	1.57	inactive
17	ABCB7 (ATP binding cassette subfamily B member 7)	SID442890399	0.354	0.119	0.792	inactive
18	SFXN4 (sideroflexin 4)	SID442887588	0.822	0.84	0.979	inactive
19	PDCD5 (programmed cell death 5)	SID442891881	1.41	-0.58	-0.122	inactive
20	SYCE2 (synaptonemal complex central element protein 2)	SID442887350	0.947	0.831	1.02	inactive
21	RIBC2 (RIB43A domain with coiled-coils 2)	SID442902111	-1.54	-0.344	-1.16	inactive
22	LCLAT1 (lysocardiolipin acyltransferase 1)	SID442902334	-0.427	-1.14	-1.59	inactive
23	LOC123855 (retired record)	SID442885773	1.11	1.35	1.67	inactive
24	GMFB (glia maturation factor beta)	SID442883706	2.81	1.73	2.73	active
25	BOD1L1 (biorientation of chromosomes in cell division 1 like 1)	SID442899008	-0.734	-0.691	-0.273	inactive
26	SUCLG1 (succinate-CoA ligase GDP/ADP-forming subunit alpha)	SID442899551	-0.731	-0.509	-0.665	inactive
27	ZNF581 (zinc finger protein 581)	SID442903203	-1.42	-1.55	-0.746	inactive
28	NAA11 (N-alpha-acetyltransferase 11, NatA catalytic subunit)	SID442888695	0.639	1.08	0.313	inactive
29	ARSG (arylsulfatase G)	SID442898105	-0.445	-0.616	-0.323	inactive
30	OR1S2 (olfactory receptor family 1 subfamily S member 2)	SID442891120	0.256	0.565	0.162	inactive

Continued, starting with the last 5 of the part before.
no.	gene	PubChem SID	robust z-score, replicate 1	robust z-score, replicate 2	robust z-score, replicate 3	Outcome
26	SUCLG1 (succinate-CoA ligase GDP/ADP-forming subunit alpha)	SID442899551	-0.731	-0.509	-0.665	inactive
27	ZNF581 (zinc finger protein 581)	SID442903203	-1.42	-1.55	-0.746	inactive
28	NAA11 (N-alpha-acetyltransferase 11, NatA catalytic subunit)	SID442888695	0.639	1.08	0.313	inactive
29	ARSG (arylsulfatase G)	SID442898105	-0.445	-0.616	-0.323	inactive
30	OR1S2 (olfactory receptor family 1 subfamily S member 2)	SID442891120	0.256	0.565	0.162	inactive
31	PRSS47P (serine protease 47, pseudogene)	SID442897903	-0.445	-0.677	-0.19	inactive
32	GZMK (granzyme K)	SID442885555	1.46	1.27	1.68	inactive
33	KIRREL3-AS3 (KIRREL3 antisense RNA 3)	SID442899826	-0.801	-0.662	-0.56	inactive
34	LOC441130 (retired record)	SID442899875	-0.354	-1	-0.685	inactive
35	HLA-DQB2 (major histocompatibility complex, class II, DQ beta 2)	SID442903693	-1.68	-0.969	-1.43	inactive
36	FBXL19 (F-box and leucine rich repeat protein 19)	SID442889715	0.292	0.333	0.931	inactive
37	CHRDL1 (chordin like 1)	SID442892486	0.521	-0.079	0.0416	inactive
38	LOC440120 (retired record)	SID442895406	-0.0919	-0.229	-0.177	inactive
39	DYNC1I1 (dynein cytoplasmic 1 intermediate chain 1)	SID442901627	-1.02	-0.724	-1.05	inactive
40	ADH1B (alcohol dehydrogenase 1B (class I), beta polypeptide)	SID442892928	-0.214	0.11	0.433	inactive
41	ACVR1 (activin A receptor type 1)	SID442900670	-0.459	-0.492	-1.42	inactive
42	LOC389888 (retired record)	SID442887679	0.852	0.975	0.764	inactive
43	GJB7 (gap junction protein beta 7)	SID442888564	0.606	0.546	0.941	inactive
44	ELN (elastin)	SID442898873	-0.772	0.297	-1.17	inactive
45	PTK2B (protein tyrosine kinase 2 beta)	SID442892139	0.63	-0.494	0.475	inactive
46	SHCBP1 (SHC binding and spindle associated 1)	SID442883540	2.78	2.75	2.62	active
47	GBF1	SID442894089	-1.27	1.23	-0.0399	inactive
48	SMIM12 (small integral membrane protein 12)	SID442902829	-1.58	-0.545	-1.34	inactive
49	LOC440609 (retired record)	SID442898347	-0.183	-0.488	-0.794	inactive
50	KMT2D (lysine methyltransferase 2D)	SID442900866	-0.366	-1.22	-0.869	inactive
51	LDB3 (LIM domain binding 3)	SID442899788	-0.414	-0.492	-1.1	inactive
52	CRADD (CARD and death domain containing adaptor protein)	SID442885344	1.73	1.4	1.53	inactive
53	KNTC1 (kinetochore associated 1)	SID442887453	1.41	1.76	-0.442	inactive
54	TEKT4P2 (tektin 4 pseudogene 2)	SID442896933	-0.305	-0.194	-0.485	inactive
55	TMC7 (transmembrane channel like 7)	SID442901161	-0.668	-0.766	-1.14	inactive
56	C7orf25 (chromosome 7 open reading frame 25)	SID442902131	-0.841	-1.38	-0.83	inactive
57	RNF39 (ring finger protein 39)	SID442895193	0.0897	-0.609	0.0843	inactive
58	WNK4 (WNK lysine deficient protein kinase 4)	SID442896878	-0.304	-0.352	-0.31	inactive
59	IPMK (inositol polyphosphate multikinase)	SID442895316	-0.491	-0.443	0.462	inactive
60	LINC00161 (long independently transcribed non-coding RNA 161)	SID442903124	-1.45	-1.38	-0.841	inactive
61	ZNF807P (zinc finger protein 807, pseudogene)	SID442902406	-1.21	-0.839	-1.16	inactive
62	DECR2 (2,4-dienoyl-CoA reductase 2)	SID442896598	-0.541	0.249	-0.58	inactive
63	ISCA1P1 (iron-sulfur cluster assembly 1 pseudogene 1)	SID442902317	-1.07	-1.12	-0.954	inactive
64	LOC439952 (retired record)	SID442900423	-0.76	-0.539	-0.974	inactive
65	AAMP (angio associated migratory cell protein)	SID442896105	0.626	-0.691	-0.652	inactive
66	HBD (hemoglobin subunit delta)	SID442896897	1.73	-0.267	-2.43	inactive
67	CCT8 (chaperonin containing TCP1 subunit 8)	SID442892543	0.254	0.218	-0.0106	inactive
68	ANAPC2 (anaphase promoting complex subunit 2)	SID442901187	-0.0437	-1.36	-1.19	inactive
